Assay results from PubChem BioAssay AID2662 (National Center for Advancing Translational Sciences (NCATS), 2010).
In all, about 290,000 compounds went through this assay and about 110 (0.038%) were called active. Inconclusive means that the source gave no clear call. Such entries were picked first, then a sample of the others. Calls come from the whole dose curve; as a rule, active = well fitted inhibition curve with a large enough effect in the polarisation, with a control signal flat (not every such curve was filed as active); inconclusive = small, poorly fitted or top-dose-only effect, or effect the other way, or a change in a side signal; inactive = no such curve, though single readings can be large or run the other way; the % refers to the polarisation. Where the call is inconclusive, the potency comes from a doubtful curve fit. “Side channel” marks fits to a control or component signal instead of the main read-out.

Amino acid sequences for entries named in this document (tags omitted).
UniProt Q03164, whole entry, looked up: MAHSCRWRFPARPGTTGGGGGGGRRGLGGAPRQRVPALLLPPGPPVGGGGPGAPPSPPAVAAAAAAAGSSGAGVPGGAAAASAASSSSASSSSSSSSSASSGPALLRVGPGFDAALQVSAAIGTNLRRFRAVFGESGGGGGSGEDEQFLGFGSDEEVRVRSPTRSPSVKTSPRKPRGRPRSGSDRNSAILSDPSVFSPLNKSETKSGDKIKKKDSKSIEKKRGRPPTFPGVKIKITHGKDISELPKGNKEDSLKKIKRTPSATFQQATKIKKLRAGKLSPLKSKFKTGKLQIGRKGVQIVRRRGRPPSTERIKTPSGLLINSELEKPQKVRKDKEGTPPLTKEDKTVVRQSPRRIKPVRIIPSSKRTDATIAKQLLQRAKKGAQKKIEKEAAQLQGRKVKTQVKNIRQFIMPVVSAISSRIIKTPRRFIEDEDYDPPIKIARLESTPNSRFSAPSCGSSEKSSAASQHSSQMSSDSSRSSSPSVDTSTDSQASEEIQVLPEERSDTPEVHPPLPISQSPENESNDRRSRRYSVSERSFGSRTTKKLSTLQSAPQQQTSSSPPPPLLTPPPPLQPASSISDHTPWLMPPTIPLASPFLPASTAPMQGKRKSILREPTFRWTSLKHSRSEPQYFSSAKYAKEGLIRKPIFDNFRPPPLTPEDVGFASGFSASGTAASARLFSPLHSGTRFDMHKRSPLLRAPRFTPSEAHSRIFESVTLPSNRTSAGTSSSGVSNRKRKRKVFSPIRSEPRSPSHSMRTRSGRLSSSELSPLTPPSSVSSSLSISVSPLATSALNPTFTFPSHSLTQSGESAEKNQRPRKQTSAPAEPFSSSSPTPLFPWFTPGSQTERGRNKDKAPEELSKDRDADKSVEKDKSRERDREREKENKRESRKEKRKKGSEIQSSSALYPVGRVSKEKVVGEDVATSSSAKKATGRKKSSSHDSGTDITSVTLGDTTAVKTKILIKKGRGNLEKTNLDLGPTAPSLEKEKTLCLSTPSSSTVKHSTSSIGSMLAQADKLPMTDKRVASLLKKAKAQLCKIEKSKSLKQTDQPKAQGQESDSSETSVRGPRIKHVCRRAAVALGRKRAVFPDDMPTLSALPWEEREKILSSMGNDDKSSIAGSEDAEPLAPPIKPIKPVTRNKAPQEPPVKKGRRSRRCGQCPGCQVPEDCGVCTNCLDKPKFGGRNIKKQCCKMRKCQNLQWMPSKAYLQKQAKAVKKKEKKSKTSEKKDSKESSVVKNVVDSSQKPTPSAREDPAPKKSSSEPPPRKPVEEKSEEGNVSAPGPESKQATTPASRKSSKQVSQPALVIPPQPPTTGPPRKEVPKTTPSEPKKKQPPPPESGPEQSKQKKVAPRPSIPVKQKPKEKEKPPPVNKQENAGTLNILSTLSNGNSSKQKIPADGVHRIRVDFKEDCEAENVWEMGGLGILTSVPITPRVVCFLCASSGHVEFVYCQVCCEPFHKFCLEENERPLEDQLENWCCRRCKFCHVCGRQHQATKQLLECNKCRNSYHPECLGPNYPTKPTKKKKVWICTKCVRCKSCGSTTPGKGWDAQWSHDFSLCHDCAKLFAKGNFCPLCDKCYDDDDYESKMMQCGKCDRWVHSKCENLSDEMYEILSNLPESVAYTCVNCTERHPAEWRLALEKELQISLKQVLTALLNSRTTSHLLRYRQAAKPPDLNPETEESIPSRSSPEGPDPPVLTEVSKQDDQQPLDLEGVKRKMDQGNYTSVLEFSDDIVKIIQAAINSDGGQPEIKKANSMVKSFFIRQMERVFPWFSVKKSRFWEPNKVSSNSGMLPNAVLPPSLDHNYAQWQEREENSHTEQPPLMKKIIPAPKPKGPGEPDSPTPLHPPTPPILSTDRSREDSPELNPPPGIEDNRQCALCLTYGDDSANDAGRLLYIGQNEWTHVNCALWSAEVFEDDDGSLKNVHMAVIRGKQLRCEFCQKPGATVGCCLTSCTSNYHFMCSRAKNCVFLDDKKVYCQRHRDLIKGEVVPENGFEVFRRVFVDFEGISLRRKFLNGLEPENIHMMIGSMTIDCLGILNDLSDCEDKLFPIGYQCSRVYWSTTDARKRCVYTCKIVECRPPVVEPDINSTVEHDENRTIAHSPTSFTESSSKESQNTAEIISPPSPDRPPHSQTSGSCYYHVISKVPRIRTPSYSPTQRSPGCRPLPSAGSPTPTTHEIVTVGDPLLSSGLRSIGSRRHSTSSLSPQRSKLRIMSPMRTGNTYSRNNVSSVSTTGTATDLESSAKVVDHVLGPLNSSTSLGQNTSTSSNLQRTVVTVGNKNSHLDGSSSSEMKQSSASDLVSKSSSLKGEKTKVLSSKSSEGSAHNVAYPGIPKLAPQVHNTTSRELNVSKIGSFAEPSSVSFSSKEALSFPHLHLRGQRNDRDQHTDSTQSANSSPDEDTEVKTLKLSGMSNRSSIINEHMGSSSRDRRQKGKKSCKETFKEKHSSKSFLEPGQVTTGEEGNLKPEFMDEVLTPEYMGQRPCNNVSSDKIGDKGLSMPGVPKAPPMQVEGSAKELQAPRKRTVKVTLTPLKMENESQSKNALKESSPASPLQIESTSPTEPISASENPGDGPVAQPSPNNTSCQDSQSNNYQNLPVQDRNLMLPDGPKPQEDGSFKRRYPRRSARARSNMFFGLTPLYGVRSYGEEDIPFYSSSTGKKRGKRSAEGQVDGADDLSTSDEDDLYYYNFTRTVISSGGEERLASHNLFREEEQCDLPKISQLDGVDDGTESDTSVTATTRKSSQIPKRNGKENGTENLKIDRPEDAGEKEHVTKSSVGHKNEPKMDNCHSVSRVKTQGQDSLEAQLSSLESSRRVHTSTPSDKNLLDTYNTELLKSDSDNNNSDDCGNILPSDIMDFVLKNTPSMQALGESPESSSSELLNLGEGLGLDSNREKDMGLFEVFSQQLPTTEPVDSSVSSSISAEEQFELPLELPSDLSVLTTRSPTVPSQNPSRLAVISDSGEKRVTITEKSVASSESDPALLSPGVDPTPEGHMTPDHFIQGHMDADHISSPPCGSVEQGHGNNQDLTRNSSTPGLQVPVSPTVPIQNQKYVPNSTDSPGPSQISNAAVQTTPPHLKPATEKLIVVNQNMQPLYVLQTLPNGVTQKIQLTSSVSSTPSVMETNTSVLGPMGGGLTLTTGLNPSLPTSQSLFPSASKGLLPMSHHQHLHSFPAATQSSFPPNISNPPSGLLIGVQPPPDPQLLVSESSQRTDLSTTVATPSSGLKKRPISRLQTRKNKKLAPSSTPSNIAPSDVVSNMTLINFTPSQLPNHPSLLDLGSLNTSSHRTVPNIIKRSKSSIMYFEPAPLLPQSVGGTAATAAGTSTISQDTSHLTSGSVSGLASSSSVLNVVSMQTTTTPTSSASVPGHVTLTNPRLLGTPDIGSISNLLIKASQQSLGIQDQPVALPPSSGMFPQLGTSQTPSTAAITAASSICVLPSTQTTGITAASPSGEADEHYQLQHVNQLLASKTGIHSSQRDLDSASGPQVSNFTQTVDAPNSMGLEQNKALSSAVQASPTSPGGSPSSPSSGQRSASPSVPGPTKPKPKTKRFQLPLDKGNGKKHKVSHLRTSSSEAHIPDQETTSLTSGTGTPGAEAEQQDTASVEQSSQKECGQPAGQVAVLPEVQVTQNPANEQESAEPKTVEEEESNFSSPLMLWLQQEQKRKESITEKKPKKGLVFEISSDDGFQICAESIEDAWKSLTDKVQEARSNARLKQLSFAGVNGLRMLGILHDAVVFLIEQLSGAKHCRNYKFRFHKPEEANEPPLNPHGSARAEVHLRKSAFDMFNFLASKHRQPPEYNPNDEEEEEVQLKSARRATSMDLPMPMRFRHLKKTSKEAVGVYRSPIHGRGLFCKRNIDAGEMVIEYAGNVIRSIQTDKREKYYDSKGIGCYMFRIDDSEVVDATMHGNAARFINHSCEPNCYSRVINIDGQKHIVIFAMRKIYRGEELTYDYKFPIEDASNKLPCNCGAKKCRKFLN

Target: Histone-lysine N-methyltransferase 2A (Homo sapiens) (UniProt Q03164)
Assay: qHTS Fluorescence Polarization Assay for Inhibitors of MLL CXXC domain - DNA interaction
Details: MLL-CXXC / FITC-HOXA9 DNA fluorescence polarization; activity change, negative = inhibition: at 115 µM (top of the series)
Summary of the method: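 Steps: dispense CXXC domain solution (7 uM) → pin compounds or unlabeled HOX-A9 DNA control → 5 min ambient → add FLSN-HOX-A9 solution (50 nM) → spin → 30 min ambient → fluorescence polarization. Tris pH 7.5/NaCl/DTT/BSA buffer.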
Potency is the fitted concentration of half-maximal effect.

| Structure (SMILES) | Potency | activity change, negative = inhibition |
| --- | --- | --- |
| Cc1cc(-c2ccco2)c(C#N)c2nc3ccccc3n12 | inconclusive: 31.6 µM [fluorescent, side channel, partial curve] | – |
| CCCCCOC(=O)Cc1c(O)c2ccccc2n(C)c1=O | – | inactive: -5.07% |
| CCOC(=O)c1c(NC(C)=O)sc2c(OCCN(CC)CC)c(Br)ccc12 | active: 35.5 µM | – |
| S=c1[nH]nc(Nc2ccc(Cl)cc2)s1 | – | inactive: -11.8% |
| C=CCn1c(SCC(=O)Nc2ccc3c(c2)CCC3)nnc1-c1cccs1 | – | inactive: -4.87% |
| CC(C)S(=O)(=O)C1=NSC2=NC(=O)/C(=C\c3ccc(-c4cccc(C(=O)O)c4)o3)C(=N)N21 | inconclusive: 35.5 µM [fluorescent, side channel, partial curve] | – |
| COc1ccc(CC(=O)c2c(O)cc(O)cc2O)cc1OC | inconclusive: 31.6 µM [inhibitor, partial curve] | – |
| CN(c1ccccc1)S(=O)(=O)c1ccc(NC(=O)c2ccc(-c3ccccc3)cc2)cc1 | – | inactive: 31.5% |
| CC(=O)/C(N=Nc1cc2c(c([N+](=O)[O-])c1C)C(C)(C)CC2(C)C)=C(\C)O | inconclusive: 11.2 µM [quencher, side channel, full curve] | – |
| CC(=O)Nc1cccc(Nc2nc(-c3ccccc3F)nc3ccccc23)c1 | – | inactive: 5.85% |
| COc1ccc(S(=O)(=O)N(C)CC(=O)N2CCN(c3ccccc3)CC2)cc1 | inconclusive: 15.8 µM [fluorescent, side channel, partial curve] | – |
| CC(C)(C)C(=O)C[n+]1ccccc1 | inconclusive: 100 µM [fluorescent, side channel, partial curve] | – |
| CC(C)(C)C(=O)/C=c1\s/c(=C\c2ccc(-c3ccc([N+](=O)[O-])cc3)o2)c(=O)n1CC(=O)NC(N)=O | – | inconclusive: 55.1% [activator] |
| COc1ccccc1NC(=O)/C=C\c1ccco1 | inconclusive: 39.8 µM [fluorescent, side channel, partial curve] | – |
| Cc1ccc(-c2ccc(=O)n(CC(=O)Nc3cccc(C(=O)N4CCN(C)CC4)c3)n2)cc1 | inconclusive: 14.1 µM [inhibitor, single point] | – |
| COc1cccc(Nc2nc(-c3cccc(N4C(=O)c5ccccc5C4=O)c3)cs2)c1 | – | inactive: 32.7% |
| COc1ccc(-n2c(NC(=O)c3ccco3)c(C#N)c3nc4ccccc4nc32)cc1 | inconclusive: 70.8 µM [inhibitor, single point] | – |
| CC(=O)Nc1ccc(S(=O)(=O)N2CCN(c3nc(NC4CCCC4)c4ccccc4n3)CC2)cc1 | – | inactive: 38.5% |
| COC1=C/C(=C/c2c(N)n3nc(CC(=O)N4CCCC4)sc3nc2=O)C=CC1=O | inconclusive: 28.2 µM [fluorescent, partial curve] | – |
| COc1ccc(OC)c(Nc2nc(=O)c3cccnc3s2)c1 | – | inactive: 12.4% |
| CCCCCCCCCCCCCCCC(=O)OC[C@H](O)[C@H]1OC[C@@H](O)[C@@H]1O | – | inactive: 7.5% |
| CCN1CCN(CCNC(=O)c2ccc3c(c2)NC(=O)/C(=C\c2ccc(OC)c(OC)c2)S3)CC1 | inconclusive: 31.6 µM [quencher, side channel, single point] | – |

| Structure (SMILES) | Potency | activity change, negative = inhibition |
| --- | --- | --- |
| Cc1nc(CSc2nsc(C)c2C#N)cs1 | inconclusive: 31.6 µM [fluorescent, side channel, partial curve] | – |
| CCN(CC)c1ccc(C=N/C(C#N)=C(\N)C#N)cc1 | inconclusive: 35.5 µM [fluorescent, side channel, single point] | – |
| CCOc1ccc(NC(=S)Nc2ccccc2C2(C)CC2)cc1 | inconclusive: 70.8 µM [inhibitor, single point] | – |
| CN(C(=S)SCc1ccccc1)C1CCS(=O)(=O)C1 (stereo unspecified) | inconclusive: 12.6 µM [inhibitor, single point] | – |
| COc1ccc(CC(=O)Nc2ccc(-c3nnc(-c4ccccc4)o3)cc2)cc1OC | – | inactive: 8.12% |
| CC1CCCN(c2nc3nonc3nc2Nc2ccccc2F)C1 (stereo unspecified) | – | inactive: -7.64% |
| COc1ccccc1CNC(=O)C(=O)NCC1OCCCN1S(=O)(=O)c1cccs1 (stereo unspecified) | inconclusive: 14.1 µM [fluorescent, side channel, single point] | – |
| CC(Cc1cccs1)N(Cc1ccc(Cl)cc1)C(=O)c1ccncc1 (stereo unspecified) | inconclusive: 89.1 µM [fluorescent, side channel, single point] | – |
| COc1ccc(/C=N/NC(=O)c2[nH]c3ccc(Cl)cc3c2-c2ccccc2)c(C(=O)O)c1OC | – | inactive: 9.65% |
| Cc1c(-n2cccc2C=O)cccc1[N+](=O)[O-] | inconclusive: 10 µM [inhibitor, single point] | – |
| CCn1cc(C2=NOC(C(=O)Nc3cccc(C(C)=O)c3)C2)c(C)n1 (stereo unspecified) | inconclusive: 7.94 µM [fluorescent, side channel, full curve, poor fit] | – |
| CC(C)(C)CC(C)(C)c1ccc(O)c(Cc2ccc(Cl)cc2Cl)c1 | inconclusive: 39.8 µM [quencher, side channel, single point] | – |
| CCN(CC)c1ccc(/C=C/c2ccc3ccc(OC)cc3[n+]2CC)cc1 | inconclusive: 10 µM [fluorescent, side channel, partial curve] | – |
| Cc1cc(C)nc(SC2=CS(=O)(=O)c3ccccc32)n1 | inconclusive: 1 µM [fluorescent, side channel, full curve] | – |
| CCn1c(/N=C/c2ccccc2O)nc2ccccc21 | inconclusive: 35.5 µM [inhibitor, single point] | – |
| COc1ccccc1CNC(=O)[C@@H](NC(=O)C1CCN(C(=O)[C@@H]2CCCN2)CC1)C(C)C | – | inactive: 9.45% |
| CCN(CC)c1ccc(/C=N/NC(=S)NC)c(O)c1 | – | inactive: -1.51% |
| O=C1CCc2cc(S(=O)(=O)NCCC(=O)N3CCN(c4cccc(Cl)c4)CC3)ccc2N1 | – | inactive: 0.152% |
| Cc1cccc(OCc2nc(C#N)c(N3CC(C)CC(C)C3)o2)c1 (stereo unspecified) | – | inactive: -9.22% |
| CCn1c(N)c(C(=O)NC)sc1=S | – | inactive: 3.35% |
| O=C(NCc1ccccn1)C1CCN(S(=O)(=O)c2ccc(Br)cc2)CC1 | inconclusive: 7.94 µM [fluorescent, side channel, full curve] | – |
| CN(C)c1ccc(/C=C/c2cc[n+]([O-])cc2)cc1 | inconclusive: 70.8 µM [fluorescent, side channel, single point] | – |

| Structure (SMILES) | Potency | activity change, negative = inhibition |
| --- | --- | --- |
| Cc1ccccc1N1C(=O)c2cccc3c(N(C)CCO)ccc(c23)C1=O | inconclusive: 28.2 µM [fluorescent, side channel, partial curve] | – |
| CCCn1c(SCC(=O)NNC(=O)c2ccc(C)cc2)nnc1C(C)C | inconclusive: 70.8 µM [inhibitor, single point] | – |
| Cc1cc(/C=C2/C(=N)N3C(=NC2=O)SN=C3S(C)(=O)=O)c(C)n1-c1ccccc1F | inconclusive: 7.94 µM [fluorescent, side channel, full curve] | – |
| Cc1ccc(Oc2ccc(/C=N/O)cn2)cc1 | – | inactive: 0.848% |
| COCCCN1CN(S(=O)(=O)c2ccc(Cl)cc2)c2nc3ccccc3nc21 | inconclusive: 1.12 µM [fluorescent, side channel, full curve, poor fit] | – |
| CC(=O)c1c(C)oc2ccc(NS(=O)(=O)c3ccc(C)cc3)cc12 | – | inactive: -1.54% |
| CCOC(=O)c1cc2n(c1N)-c1ccccc1C2=O | inconclusive: 12.6 µM [fluorescent, side channel, full curve] | – |
| Cc1ccc(S(=O)(=O)N2CCC(C(=O)NC3CC(C)(C)NC(C)(C)C3)CC2)cc1C | inconclusive: 5.01 µM [fluorescent, side channel, partial curve] | – |
| COc1ccccc1/C=C/CN1CCCC(CO)(Cc2cccc(Cl)c2)C1 (stereo unspecified) | – | inactive: -9.99% |
| CSc1ccc(C#N)cc1NC(=O)c1cccnc1Cl | inconclusive: 89.1 µM [inhibitor, single point] | – |
| CCOC(=O)NC(Nc1ccc(OC)cc1)(C(F)(F)F)C(F)(F)F | inconclusive: 7.08 µM [fluorescent, side channel, full curve, poor fit] | – |
| C/C(=N\NC(=O)c1nnn(-c2nonc2N)c1CN1CCCCC1)c1ccccc1O | inconclusive: 10 µM [quencher, side channel, single point] | – |
| COc1cccc(C2c3[nH]c4ccccc4c3C[C@H]3C(=O)N(CCCOC(C)C)CC(=O)N23)c1 (stereo partly specified) | – | inactive: 0.954% |
| COC(=O)c1ccc(C2C(Oc3ccc(OC)cc3)C(=O)N2CCc2ccc(OC)c(OC)c2)cc1 (stereo unspecified) | inconclusive: 35.5 µM [inhibitor, single point] | – |
| Cc1nn(C)c(C)c1S(=O)(=O)N1CCC(CO)(Cc2ccc(Cl)cc2)CC1 | inconclusive: 11.2 µM [quencher, side channel, full curve, poor fit] | – |
| CC(=O)Oc1ccccc1/C=C/c1nc2ccccc2c(=O)o1 | – | inactive: -6.34% |
| N#C/C(=C\c1cccs1)C(=O)c1ccccc1Cl | active: 22.4 µM | – |
| Cc1ccccc1OCc1n[nH]c(=S)n1Cc1ccccc1 | inconclusive: 14.1 µM [fluorescent, single point] | – |
| Cc1c(OCC(=O)NC(Cc2ccc(Cl)cc2)C(=O)O)ccc2c3c(c(=O)oc12)CCCC3 (stereo unspecified) | inconclusive: 35.5 µM [inhibitor, partial curve] | – |
| CC1CCN(C(=O)CSc2nc3ccccc3c(=O)n2Cc2ccc3c(c2)OCO3)CC1 | – | inactive: -2.67% |
| O=C(NNc1ncnc2c1cnn2-c1cccc(Cl)c1)c1ccco1 | inconclusive: 15.8 µM [fluorescent, side channel, single point] | – |
| CCOC(=O)c1c(NC(=O)CN2CCCCC2)sc2c1CCN(C(=O)OCC)C2 | – | inactive: 1.9% |

Copied from the list:
Under activity change, negative = inhibition, `COc1ccccc1/C=C/CN1CCCC(CO)(Cc2cccc(Cl)c2)C1` (stereo unspecified) shows inactive: -9.99%
Under activity change, negative = inhibition, `CC(=O)Oc1ccccc1/C=C/c1nc2ccccc2c(=O)o1` shows inactive: -6.34%
